Experimental data published in paper doi:10.1101/621219 (bioRxiv, 2019).

Tests used:
Test in all cases: SEC
[1] = target: FoxA truncation mutant with residues 64-130 deleted (Pseudomonas aeruginosa strain PAO1) (UniProt Q9I116)
[2] = target: FoxA truncation mutant with residues 64-143 deleted (Pseudomonas aeruginosa strain PAO1) (UniProt Q9I116)
[3] = target: FoxA truncation mutant with residues 64-130 deleted (Pseudomonas aeruginosa strain PAO1) (UniProt Q9I116); remark: listed apart in the source

Measured: binding

B1: C-terminal domain of TonB1 from Pseudomonas aeruginosa PAO1 (residues 251-340) (domain or fragment, Pseudomonas aeruginosa strain PAO1, UniProt Q51368 251-340, looked up)
chain: DSDIKPLRMDPPVYPRMAQARGIEGRVKVLFTITSDGRIDDIQVLESVPSRMFDREVRQAMAKWRFEPRVSGGKIVARQATKMFFFKIEK
binds: all assays above

Like-named read-outs stand apart in the source and are kept apart here. No constants are given. Whether binding was seen depends on the method and setting. A result given as binding can be weak or reduced; the word gives no strength.
